Assay results published in paper PMC10976834.
No constants are given. Whether binding was seen depends on the method and setting. In cells and extracts the contact can be indirect. Some entries that bind do so weakly or less than the wild type.

Chains of the proteins cited; added tags and fusions are not shown.
UniProt P11142: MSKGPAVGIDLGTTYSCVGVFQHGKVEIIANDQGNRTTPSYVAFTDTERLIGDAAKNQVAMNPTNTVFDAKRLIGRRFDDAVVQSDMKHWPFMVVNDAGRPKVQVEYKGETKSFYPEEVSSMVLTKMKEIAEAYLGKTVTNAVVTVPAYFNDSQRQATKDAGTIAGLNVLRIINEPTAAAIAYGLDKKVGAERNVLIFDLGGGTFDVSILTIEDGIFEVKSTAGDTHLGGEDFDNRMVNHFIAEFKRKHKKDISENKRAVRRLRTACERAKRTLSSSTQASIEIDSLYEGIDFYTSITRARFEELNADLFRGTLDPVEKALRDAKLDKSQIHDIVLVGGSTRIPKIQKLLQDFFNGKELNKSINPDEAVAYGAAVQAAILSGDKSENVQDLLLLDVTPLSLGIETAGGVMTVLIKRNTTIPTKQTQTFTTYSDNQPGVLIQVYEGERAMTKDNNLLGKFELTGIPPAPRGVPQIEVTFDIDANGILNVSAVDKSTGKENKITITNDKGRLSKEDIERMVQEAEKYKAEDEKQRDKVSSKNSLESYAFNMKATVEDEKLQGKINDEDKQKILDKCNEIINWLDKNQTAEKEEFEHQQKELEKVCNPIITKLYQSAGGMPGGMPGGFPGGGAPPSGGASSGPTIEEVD
UniProt P19096: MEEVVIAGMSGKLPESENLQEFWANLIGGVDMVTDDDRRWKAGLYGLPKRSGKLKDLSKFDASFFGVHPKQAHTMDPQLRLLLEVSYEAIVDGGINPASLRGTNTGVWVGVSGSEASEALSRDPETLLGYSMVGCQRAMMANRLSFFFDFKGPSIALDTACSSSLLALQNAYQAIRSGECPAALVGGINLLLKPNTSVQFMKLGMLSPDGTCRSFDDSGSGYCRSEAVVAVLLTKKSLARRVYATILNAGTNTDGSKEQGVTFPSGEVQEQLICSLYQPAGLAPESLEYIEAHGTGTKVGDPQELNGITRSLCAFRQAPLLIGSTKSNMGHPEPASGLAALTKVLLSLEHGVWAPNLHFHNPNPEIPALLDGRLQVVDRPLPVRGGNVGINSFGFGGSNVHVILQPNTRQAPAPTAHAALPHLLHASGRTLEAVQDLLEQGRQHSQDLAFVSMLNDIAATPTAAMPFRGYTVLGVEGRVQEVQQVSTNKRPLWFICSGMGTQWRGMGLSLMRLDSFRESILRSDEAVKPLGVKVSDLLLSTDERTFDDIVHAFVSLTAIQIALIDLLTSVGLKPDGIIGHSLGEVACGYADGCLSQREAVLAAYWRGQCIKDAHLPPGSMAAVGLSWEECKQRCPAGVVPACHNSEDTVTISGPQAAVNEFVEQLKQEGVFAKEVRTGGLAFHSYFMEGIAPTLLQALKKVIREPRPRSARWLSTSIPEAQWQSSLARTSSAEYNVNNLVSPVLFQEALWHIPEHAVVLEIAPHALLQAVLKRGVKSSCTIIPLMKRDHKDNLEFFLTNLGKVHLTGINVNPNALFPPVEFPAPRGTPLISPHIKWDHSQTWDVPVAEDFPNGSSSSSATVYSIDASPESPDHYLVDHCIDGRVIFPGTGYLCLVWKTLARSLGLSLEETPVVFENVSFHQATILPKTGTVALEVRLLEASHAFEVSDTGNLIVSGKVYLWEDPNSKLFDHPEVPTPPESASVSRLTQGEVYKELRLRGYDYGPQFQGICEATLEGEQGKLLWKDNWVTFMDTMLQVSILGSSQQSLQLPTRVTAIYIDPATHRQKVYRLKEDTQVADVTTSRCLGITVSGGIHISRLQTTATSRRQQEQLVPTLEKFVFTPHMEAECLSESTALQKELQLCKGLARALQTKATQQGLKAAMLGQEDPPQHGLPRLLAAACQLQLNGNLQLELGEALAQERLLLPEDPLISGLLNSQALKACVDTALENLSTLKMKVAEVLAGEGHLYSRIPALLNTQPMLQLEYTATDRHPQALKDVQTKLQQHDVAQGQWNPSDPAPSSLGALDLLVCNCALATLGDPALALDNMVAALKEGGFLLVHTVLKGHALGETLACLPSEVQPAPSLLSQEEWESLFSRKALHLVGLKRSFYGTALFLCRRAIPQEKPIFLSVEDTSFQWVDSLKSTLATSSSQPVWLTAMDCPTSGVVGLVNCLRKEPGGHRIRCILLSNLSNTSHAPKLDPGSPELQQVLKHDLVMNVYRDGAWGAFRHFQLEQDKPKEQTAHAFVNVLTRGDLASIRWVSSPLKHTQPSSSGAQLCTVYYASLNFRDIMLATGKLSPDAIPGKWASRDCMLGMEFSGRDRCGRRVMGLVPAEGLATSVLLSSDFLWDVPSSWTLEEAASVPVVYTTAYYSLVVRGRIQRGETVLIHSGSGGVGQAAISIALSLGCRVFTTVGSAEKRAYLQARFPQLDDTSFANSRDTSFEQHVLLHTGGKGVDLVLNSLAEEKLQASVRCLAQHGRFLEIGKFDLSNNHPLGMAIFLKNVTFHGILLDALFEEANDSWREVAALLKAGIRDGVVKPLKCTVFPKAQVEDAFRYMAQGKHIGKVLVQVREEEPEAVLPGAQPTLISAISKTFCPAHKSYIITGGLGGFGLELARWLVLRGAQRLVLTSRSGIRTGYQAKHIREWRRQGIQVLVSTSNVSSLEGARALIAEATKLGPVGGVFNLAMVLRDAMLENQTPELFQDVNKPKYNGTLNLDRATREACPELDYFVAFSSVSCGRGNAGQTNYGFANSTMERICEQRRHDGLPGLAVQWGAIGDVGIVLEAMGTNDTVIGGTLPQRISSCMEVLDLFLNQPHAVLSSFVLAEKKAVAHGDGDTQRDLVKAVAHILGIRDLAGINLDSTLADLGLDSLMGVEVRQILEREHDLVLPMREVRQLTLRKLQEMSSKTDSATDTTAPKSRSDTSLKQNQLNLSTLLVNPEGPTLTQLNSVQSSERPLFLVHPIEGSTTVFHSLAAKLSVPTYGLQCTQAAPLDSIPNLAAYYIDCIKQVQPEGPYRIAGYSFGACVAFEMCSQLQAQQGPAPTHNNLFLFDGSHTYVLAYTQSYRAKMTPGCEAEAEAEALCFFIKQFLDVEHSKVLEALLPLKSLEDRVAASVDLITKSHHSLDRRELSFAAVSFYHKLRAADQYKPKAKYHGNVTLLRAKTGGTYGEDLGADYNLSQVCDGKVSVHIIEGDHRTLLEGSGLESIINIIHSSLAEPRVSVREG

Target: GFP-HSC70 (expressed in SN4741 cells) (UniProt P11142)
Assay: co-IP; GFP or GFP-HSC70 transiently transfected into SN4741 and HEK293T cells for 48 h; lysis in 10 mM Tris/HCl pH 7.5, 150 mM NaCl, 0.5 mM EDTA, 0.5% NP40; anti-GFP agarose beads, 4 °C, 2 h; western blot

Fatty acid synthase (Fasn), mouse (from UniProt P19096 1-2504) (enzyme)
binding: binds
